Assay results taken from publication doi:10.1101/2024.06.23.600301.
These are yes or no findings as the source states them, for the method shown. Some entries that bind do so weakly or less than the wild type.

Chains of the proteins cited; added tags and fusions are not shown. Residues count along the entry.
UniProt P32781, residues 19-87: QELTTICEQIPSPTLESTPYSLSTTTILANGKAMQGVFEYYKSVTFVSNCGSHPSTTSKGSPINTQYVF

Target: T1, Sag1 (S. cerevisiae) (UniProt P20840)
T1 sequence: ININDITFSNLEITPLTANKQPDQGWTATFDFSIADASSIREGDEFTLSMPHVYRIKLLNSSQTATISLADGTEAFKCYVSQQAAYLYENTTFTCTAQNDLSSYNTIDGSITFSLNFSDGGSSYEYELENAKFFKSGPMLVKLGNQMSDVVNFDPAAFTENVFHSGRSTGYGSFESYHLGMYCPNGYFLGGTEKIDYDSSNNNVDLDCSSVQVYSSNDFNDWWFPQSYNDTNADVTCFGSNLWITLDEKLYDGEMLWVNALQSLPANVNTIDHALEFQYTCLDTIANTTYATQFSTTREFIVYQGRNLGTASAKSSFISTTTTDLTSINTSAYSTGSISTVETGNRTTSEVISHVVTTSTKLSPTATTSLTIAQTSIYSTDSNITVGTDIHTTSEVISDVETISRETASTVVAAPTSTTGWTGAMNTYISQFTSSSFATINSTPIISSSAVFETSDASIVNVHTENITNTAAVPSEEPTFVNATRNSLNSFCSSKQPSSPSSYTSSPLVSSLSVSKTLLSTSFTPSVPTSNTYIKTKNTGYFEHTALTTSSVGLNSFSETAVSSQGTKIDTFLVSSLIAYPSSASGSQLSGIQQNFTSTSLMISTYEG
Assay: two-colour cell-cell adhesion assay

binding: binds
Substance: Aga2 (from UniProt P32781 19-87)
